Results taken from the supplement of paper PMC10849652.
The other results are listed elsewhere or left out.

Chains of the proteins cited; added tags and fusions are not shown. Lines headed by an entry give the natural chain unless they say otherwise; changes in a name come on top.
UniProt Q9NYM9: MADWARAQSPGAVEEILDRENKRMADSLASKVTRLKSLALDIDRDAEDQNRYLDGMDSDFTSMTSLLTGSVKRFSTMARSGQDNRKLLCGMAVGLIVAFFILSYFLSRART
UniProt Q99700, whole entry, looked up: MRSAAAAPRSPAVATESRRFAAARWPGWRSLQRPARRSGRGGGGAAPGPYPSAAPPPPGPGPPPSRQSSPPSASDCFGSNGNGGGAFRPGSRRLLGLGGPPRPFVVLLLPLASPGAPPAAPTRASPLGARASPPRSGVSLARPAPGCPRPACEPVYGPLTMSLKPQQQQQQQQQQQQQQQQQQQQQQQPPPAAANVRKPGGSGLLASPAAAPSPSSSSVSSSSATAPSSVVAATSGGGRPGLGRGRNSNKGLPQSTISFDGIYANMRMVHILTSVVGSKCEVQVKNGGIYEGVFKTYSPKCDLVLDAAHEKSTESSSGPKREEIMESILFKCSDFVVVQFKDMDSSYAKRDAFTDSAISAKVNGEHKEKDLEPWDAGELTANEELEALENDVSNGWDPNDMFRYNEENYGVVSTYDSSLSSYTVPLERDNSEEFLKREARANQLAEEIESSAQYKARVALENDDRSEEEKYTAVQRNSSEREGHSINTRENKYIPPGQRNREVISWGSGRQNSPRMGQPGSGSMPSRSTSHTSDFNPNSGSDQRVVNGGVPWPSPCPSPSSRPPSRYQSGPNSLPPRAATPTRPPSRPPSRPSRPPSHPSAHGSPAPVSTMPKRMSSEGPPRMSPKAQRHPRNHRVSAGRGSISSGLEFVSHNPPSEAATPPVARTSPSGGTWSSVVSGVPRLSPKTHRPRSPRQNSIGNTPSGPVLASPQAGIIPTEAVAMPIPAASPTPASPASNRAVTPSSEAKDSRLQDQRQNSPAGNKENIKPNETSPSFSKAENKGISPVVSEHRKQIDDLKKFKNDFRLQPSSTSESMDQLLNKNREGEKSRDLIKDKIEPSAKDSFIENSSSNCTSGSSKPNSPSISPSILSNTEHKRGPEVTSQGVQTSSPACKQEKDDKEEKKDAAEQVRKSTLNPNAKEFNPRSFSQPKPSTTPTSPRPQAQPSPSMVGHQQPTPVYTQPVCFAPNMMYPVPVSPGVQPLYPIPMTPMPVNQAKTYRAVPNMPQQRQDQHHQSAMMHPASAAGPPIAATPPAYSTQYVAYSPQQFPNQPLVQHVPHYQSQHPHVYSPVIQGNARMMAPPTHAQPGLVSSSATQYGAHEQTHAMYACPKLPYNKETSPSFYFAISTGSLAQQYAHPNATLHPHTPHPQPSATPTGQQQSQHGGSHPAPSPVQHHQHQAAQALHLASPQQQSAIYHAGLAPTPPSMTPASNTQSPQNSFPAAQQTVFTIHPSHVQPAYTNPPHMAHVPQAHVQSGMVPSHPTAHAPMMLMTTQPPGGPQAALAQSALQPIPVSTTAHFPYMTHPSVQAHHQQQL
UniProt P54687: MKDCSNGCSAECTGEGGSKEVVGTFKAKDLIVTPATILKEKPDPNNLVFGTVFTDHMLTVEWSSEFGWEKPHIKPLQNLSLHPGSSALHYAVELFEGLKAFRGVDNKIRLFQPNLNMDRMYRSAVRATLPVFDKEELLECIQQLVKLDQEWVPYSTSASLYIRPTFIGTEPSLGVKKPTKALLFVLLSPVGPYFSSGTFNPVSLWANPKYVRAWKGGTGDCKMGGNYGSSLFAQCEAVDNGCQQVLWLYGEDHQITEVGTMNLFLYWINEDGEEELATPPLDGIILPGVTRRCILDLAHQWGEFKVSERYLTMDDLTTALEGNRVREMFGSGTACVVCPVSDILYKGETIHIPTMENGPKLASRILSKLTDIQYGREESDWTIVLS
UniProt Q6UW56: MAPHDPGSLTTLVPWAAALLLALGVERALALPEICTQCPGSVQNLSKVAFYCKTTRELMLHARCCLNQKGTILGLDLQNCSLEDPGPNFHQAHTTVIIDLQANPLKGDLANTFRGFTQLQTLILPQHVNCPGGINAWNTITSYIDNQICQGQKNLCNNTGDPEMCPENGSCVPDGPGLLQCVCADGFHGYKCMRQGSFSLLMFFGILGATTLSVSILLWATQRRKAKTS
UniProt P21953: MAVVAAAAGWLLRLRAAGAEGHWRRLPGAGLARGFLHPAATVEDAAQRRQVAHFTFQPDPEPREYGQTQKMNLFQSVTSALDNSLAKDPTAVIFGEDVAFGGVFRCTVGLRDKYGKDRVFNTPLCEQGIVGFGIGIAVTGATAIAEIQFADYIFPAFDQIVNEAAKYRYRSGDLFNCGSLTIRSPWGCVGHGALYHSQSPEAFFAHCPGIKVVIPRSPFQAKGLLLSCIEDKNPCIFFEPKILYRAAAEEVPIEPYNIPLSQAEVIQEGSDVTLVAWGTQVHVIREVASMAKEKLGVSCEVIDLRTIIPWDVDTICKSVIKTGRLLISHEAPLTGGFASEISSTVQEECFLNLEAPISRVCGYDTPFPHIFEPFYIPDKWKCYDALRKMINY
UniProt Q9NWV8, whole entry, looked up: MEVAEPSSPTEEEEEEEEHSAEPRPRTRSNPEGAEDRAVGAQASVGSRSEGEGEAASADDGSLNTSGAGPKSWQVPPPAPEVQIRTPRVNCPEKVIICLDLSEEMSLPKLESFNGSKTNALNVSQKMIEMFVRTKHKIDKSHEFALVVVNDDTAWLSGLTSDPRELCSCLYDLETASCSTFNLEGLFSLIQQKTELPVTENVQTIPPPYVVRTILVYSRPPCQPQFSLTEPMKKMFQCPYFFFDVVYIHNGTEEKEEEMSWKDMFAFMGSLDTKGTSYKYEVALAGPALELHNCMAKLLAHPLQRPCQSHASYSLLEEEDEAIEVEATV
UniProt O15155: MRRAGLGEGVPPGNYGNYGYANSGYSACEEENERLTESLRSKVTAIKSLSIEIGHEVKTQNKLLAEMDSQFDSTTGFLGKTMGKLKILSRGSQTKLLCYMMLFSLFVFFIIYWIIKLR
UniProt Q92843: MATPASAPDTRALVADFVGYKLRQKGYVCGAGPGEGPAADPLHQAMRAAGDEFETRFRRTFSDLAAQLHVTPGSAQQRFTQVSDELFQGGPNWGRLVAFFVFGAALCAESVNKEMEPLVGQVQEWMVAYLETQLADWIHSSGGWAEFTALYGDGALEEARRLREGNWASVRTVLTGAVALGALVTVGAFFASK
UniProt Q9NW68: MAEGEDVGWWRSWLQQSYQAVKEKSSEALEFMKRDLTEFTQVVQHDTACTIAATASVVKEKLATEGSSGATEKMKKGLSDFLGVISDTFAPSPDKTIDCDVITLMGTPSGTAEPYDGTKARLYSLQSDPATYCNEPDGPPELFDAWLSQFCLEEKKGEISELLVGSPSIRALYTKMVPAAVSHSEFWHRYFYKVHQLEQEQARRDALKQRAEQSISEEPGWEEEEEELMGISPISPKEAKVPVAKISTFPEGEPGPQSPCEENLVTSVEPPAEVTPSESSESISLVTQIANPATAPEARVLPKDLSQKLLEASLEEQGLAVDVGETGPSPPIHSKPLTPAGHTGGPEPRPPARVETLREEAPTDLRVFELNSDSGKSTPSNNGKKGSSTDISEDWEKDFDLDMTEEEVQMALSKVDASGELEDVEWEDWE
UniProt Q9NUP1: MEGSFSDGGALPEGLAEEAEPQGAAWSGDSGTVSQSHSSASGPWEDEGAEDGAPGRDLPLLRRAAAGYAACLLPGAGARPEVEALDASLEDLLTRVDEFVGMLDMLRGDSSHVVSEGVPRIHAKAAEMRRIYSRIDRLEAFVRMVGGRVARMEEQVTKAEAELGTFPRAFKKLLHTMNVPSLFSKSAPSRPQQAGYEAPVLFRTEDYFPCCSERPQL
UniProt Q13490, whole entry, looked up: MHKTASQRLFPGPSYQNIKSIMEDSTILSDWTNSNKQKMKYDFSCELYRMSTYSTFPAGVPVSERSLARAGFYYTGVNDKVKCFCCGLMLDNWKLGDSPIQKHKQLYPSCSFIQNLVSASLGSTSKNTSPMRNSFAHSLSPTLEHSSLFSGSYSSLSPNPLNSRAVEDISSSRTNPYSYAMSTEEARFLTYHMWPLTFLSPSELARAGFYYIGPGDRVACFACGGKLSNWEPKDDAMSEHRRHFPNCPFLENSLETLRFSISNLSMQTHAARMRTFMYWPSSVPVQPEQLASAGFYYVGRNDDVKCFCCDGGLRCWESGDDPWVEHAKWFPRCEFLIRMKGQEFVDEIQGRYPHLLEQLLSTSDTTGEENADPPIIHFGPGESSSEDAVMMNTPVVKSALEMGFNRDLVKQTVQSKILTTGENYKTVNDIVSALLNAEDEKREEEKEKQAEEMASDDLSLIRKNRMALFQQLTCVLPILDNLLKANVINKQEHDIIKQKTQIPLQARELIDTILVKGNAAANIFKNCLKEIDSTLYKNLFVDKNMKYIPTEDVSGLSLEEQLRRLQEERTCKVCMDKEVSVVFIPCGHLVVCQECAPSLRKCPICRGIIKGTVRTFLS
UniProt Q53S33: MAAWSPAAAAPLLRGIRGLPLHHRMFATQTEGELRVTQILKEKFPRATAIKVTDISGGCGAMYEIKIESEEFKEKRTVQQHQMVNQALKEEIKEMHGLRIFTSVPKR
UniProt Q96G01: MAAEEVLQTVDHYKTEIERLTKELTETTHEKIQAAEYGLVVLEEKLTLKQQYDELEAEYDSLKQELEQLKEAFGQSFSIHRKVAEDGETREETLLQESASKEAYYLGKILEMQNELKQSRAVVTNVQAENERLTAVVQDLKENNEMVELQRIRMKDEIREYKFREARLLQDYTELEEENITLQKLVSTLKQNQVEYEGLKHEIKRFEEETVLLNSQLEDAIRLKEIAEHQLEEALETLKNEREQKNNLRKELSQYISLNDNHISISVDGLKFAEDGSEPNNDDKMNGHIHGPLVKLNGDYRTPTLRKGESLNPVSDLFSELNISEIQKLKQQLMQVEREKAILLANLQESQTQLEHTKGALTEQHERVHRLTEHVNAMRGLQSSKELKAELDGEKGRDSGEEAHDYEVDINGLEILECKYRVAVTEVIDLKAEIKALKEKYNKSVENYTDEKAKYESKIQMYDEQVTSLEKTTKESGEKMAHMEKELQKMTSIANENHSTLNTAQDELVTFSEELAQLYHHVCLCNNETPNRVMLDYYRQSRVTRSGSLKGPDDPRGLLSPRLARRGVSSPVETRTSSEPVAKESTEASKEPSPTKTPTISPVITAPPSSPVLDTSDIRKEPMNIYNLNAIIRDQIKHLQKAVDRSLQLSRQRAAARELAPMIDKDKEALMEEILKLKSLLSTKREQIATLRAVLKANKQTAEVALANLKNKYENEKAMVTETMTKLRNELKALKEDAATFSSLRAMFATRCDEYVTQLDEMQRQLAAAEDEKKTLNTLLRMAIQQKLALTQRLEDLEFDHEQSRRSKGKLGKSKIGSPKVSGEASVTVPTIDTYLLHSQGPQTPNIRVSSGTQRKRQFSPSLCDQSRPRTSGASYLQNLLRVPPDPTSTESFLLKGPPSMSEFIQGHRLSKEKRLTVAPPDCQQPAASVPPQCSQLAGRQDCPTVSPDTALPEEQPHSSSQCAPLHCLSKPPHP
UniProt Q96GX2: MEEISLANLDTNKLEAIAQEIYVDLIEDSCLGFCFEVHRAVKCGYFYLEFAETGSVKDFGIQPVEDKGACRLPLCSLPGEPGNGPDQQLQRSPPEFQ
UniProt H3BUF6: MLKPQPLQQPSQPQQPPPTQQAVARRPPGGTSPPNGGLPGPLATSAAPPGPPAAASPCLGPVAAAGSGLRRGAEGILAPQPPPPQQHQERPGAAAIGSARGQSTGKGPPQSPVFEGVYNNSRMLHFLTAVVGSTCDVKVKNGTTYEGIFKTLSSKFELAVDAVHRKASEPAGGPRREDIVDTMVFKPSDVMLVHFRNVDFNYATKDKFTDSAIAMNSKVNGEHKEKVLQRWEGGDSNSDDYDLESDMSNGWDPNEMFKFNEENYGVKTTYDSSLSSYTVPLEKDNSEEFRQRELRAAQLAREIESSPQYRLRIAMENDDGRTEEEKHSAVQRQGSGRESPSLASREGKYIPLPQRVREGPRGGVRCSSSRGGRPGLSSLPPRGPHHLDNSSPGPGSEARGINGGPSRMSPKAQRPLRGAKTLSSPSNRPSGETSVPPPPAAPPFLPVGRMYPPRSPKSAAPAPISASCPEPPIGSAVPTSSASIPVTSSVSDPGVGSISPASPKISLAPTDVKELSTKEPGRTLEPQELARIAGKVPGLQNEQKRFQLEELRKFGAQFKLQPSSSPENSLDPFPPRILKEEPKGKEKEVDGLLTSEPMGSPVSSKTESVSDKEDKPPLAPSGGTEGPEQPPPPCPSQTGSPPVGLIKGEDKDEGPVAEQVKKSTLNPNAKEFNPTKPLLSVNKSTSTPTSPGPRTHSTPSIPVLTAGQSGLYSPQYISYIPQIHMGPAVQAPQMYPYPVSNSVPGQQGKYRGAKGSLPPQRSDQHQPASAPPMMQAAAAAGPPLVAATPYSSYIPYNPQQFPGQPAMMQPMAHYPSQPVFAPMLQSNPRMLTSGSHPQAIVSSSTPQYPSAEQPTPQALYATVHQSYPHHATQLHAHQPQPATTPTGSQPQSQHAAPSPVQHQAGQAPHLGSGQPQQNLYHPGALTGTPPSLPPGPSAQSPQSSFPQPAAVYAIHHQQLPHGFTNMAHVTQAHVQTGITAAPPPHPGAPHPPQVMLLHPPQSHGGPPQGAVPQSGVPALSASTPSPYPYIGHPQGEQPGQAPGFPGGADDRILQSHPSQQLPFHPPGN

The targets below were run with c1cn2cc(-c3ccc4cn[nH]c4c3)nc(Nc3ccc(N4CCOCC4)cc3)c2n1 [entospletinib] (assay: log2 fold change, soluble protein after heating vs DMSO (PISA); higher = thermal stabilisation; K562 cells, 10 uM, 30 min; active = over 0.2 and 3.5 SD of the protein, either way, in both replicates (recomputed)).
In short: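 Thermal stability values are relative to control samples and come from duplicates. They are expressed as log2 fold changes. For measurement, K562 cells (2×10^6 cells/mL) received 10 μM compound for 30 min, and aliquots were heated for 3 min over 48°C-58°C, pooled, and extracted at 4°C in PBS with 0.5% NP-40. Soluble protein, the supernatant after 21,000xg for 90 min, was quantified by TMTpro 16plex LC-MS/MS with equalised channel sums.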

log2 fold change, inactive:
BET1L (UniProt Q9NYM9) 0.089
ATXN2 (UniProt Q99700) 0.04
BCAT1 (UniProt P54687) -0.012
BANF1 (UniProt O75531) 0.016
ATRAID isoform 3 (UniProt Q6UW56) 0.016
BPIFB1 (UniProt Q8TDL5) -0.11
BCKDHB (UniProt P21953) -0.017
BABAM1 (UniProt Q9NWV8) -0.015
BET1 (UniProt O15155) 0.025
BCL2L2 isoform 2 (UniProt Q92843) -0.077
BCL2L13 (UniProt Q9BXK5) 0.02
BSDC1 (UniProt Q9NW68) 0.025
B2M (UniProt P61769) 0.008
BABAM2 (UniProt Q9NXR7) 0.034
BPNT1 (UniProt O95861) 0.064
BLOC1S4 (UniProt Q9NUP1) 0.075
BIRC2 (UniProt Q13490) -0.006
BOLA3 (UniProt Q53S33) 0.047
BICD1 (UniProt Q96G01) -0.018
BAK1 (UniProt Q16611) 0.043
ATXN7L3B (UniProt Q96GX2) -0.019
B4GALT7 (UniProt Q9UBV7) -0.005
ATXN2L (UniProt H3BUF6) -0.102

No new results follow: an excerpt of the list.
log2 fold change, inactive:
BET1L (UniProt Q9NYM9) 0.089
ATXN2 (UniProt Q99700) 0.04
